These are yes or no findings as the source states them, for the method shown. Binding seen in cells or lysates may run through a third protein.

The chains behind the UniProt entries cited, without tags or fusion partners. Where a name states a change or a piece, a line headed by the entry shows the natural chain unless it says otherwise. Residues count along the entry.
UniProt P61956: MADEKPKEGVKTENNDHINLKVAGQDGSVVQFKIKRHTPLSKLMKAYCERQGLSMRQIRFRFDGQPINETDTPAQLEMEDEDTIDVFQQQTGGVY
UniProt P63165, residues 1-97: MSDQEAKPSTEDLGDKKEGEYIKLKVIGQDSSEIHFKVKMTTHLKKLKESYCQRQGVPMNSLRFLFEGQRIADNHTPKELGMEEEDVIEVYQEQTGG
UniProt A0A2R8Y7D0: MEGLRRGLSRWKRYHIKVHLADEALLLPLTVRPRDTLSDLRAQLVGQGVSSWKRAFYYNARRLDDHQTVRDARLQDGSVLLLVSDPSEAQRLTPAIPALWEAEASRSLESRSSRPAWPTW
UniProt P60953: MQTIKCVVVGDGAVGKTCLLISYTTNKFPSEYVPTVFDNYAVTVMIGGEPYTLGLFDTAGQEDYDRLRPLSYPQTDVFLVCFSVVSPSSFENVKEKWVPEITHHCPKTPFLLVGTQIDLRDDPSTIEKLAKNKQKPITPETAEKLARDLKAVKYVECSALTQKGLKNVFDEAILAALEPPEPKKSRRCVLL

This is an account of results in publication PMC9652315.

The target in test [1] is GST-SUMO2/3 (UniProt P61956). In words: pull-down; GST-SUMO1 or GST-SUMO2/3 bound onto glutathione-sepharose beads, incubated with protein extracts of U2OS cells (doxycycline 48 h) for 2 h at 4 °C; Western blot; only the target purified.
Test [2] has as its target GST-SUMO1 (UniProt P63165). The test is described as above.
Test [3] concerns the target pTINCR-SIMmut. In words: co-IP; U2OS cells co-transfected with pTINCR-HA and CDC42-Flag plasmids; anti-HA immunoprecipitation; anti-HA and anti-Flag blots.

pTINCR-SIMmut (from UniProt A0A2R8Y7D0): the binding result in test [1] and in test [2] was “no binding” throughout.

Turning to CDC42-Flag (from UniProt P60953 1-191), the binding result in test [3] is listed as “no binding”.
